PubChem BioAssay AID1159584 | Peter MacCallum Cancer Centre – 2016
Aim: 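Genes whose loss is lethal only together with E-cadherin loss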 (primary screen). Cell system: human MCF10A breast epithelial cells, parental and CDH1-null. Knock-down reagent: siRNA against human genes. Detection: 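Cell viability by CellTiter-Glo ATP luminescence, each line scaled to the mean of mock wells across plates, then CDH1-null over parental ratio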. Direction: CDH1-null / parental viability ratio: higher = CDH1-null cells survive relatively better than parental; CDH1-null viability vs mock: higher = more viable CDH1-null cells; parental viability vs mock: higher = more viable parental cells.
Shown is one part, drawn at random, of about 18,000 deposited reagents. The record does not give: the amount of reagent, the time to read-out.

Target gene	CDH1-null / parental viability ratio	CDH1-null viability vs mock (fraction of mock)	parental viability vs mock (fraction of mock)
KRT14	1.44	0.49	0.34
RUNX1	0.9	0.44	0.49
CPEB2	0.97	0.64	0.66
PDK2	1.05	0.9	0.86
PDXK	0.98	0.85	0.87
RALY	1.05	0.88	0.84
LRRC26	1.03	0.7	0.68
CACNA1A	1.36	1.06	0.78
C1orf226	0.88	0.58	0.66
TMEM183A	0.81	0.65	0.8
FAT2	0.6	0.35	0.58
LSM6	1.06	0.7	0.66
TBC1D8	1.11	0.92	0.83
VGLL1	0.92	0.7	0.76
TP53AIP1	0.65	0.31	0.48
ZNF790	0.92	0.69	0.75
E4F1	0.79	0.53	0.67
NCAN	1.18	0.4	0.34
ALX1	0.87	0.73	0.84
GRSF1	0.88	0.84	0.96
LSS	1.38	1.02	0.74
TMEM135	0.95	0.93	0.98
RNF38	1	0.94	0.94
GLIS2	1.07	0.98	0.92
NBPF9	0.96	0.98	1.02
APOBEC1	0.78	0.58	0.74
ARHGAP26	1.24	0.62	0.5
DMD	1.05	0.8	0.76

2 entries from above, set out differently:
Target gene | CDH1-null / parental viability ratio | CDH1-null viability vs mock (fraction of mock) | parental viability vs mock (fraction of mock)
FAT2 | 0.6 | 0.35 | 0.58
LSM6 | 1.06 | 0.7 | 0.66
